Laboratory results reported in article PMC12556802, “Rules of engagement: Determinants of chemokine receptor activation and selectivity by CCL27 and CCL28” (The Journal of Biological Chemistry, 2025).
Results are given in words; binding and its absence hold for the method and conditions named. For some assays here: Binding seen in cells or lysates may run through a third protein. Some entries that bind do so weakly or less than the wild type. For some assays here: Sequences can lack the tags named with a protein.

The chains behind the UniProt entries cited, without tags or fusion partners. Residues count along the entry.
UniProt P32121: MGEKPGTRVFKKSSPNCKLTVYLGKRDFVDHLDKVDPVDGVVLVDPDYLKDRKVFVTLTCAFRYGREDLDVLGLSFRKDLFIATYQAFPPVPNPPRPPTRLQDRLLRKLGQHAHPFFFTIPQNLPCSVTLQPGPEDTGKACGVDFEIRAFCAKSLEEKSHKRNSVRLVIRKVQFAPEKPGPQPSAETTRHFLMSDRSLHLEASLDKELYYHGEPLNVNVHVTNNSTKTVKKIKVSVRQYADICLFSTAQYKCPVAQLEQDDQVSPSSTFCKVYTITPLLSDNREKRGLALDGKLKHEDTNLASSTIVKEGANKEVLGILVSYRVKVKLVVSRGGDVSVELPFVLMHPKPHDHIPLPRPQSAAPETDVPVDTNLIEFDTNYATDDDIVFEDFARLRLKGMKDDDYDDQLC
UniProt P80098, residues 24-99: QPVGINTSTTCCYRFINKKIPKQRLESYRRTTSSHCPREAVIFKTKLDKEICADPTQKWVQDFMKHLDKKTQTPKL

Columns and labels:
CCR10-RlucII = molecular target: T1, CCR10-RlucII (human, UniProt P46092 1-362); test: FRET or BRET; HEK293 cells transiently transfected with CCR10-RlucII (donor) and βarr2-GFP10 (acceptor), stimulated with varying concentrations of chemokine (CCL27, F-CCL27, NT28-CCL27); Tyrode's buffer, 5 μM Prolume Purple, read every 5 min for 30 min
T1 sequence (looked up): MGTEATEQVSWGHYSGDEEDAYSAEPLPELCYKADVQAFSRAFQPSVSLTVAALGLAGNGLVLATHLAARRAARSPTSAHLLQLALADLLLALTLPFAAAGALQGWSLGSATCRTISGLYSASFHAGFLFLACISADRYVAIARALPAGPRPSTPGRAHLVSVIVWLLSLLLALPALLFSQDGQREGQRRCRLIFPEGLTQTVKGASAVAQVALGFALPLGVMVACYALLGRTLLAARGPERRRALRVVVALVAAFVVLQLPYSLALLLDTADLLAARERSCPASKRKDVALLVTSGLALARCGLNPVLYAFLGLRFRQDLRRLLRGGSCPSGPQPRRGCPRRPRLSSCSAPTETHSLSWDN

[1] = molecular target: T2, CC chemokine receptor 3 (CCR3) on L1.2 cells (human) (UniProt P51677); test: flow cytometry on cells; competition on L1.2/CCR3 cells (CCR3 induced with 5 mM sodium butyrate for ~22 h): 250 nM CCL7-HA alone or with a 4-fold excess of competing ligand (1000 nM), 30 min on ice, washed, bound CCL7-HA detected with an anti-HA antibody; only the binder purified
T2 sequence: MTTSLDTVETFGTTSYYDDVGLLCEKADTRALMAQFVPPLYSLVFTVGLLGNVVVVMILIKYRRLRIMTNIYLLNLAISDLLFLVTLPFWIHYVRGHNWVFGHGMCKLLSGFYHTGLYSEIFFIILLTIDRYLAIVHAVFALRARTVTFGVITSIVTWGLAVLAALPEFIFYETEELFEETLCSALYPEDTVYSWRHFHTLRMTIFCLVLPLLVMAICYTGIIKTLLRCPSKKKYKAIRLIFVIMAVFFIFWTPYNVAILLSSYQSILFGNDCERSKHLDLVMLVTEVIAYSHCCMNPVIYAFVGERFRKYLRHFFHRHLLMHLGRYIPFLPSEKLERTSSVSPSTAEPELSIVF

| binding (CCR10-RlucII) | binding [1] | Substance |
| --- | --- | --- |
| binds | – | GFP10-tagged β-arrestin2 (from UniProt P32121 1-409) |
| – | binds | C terminally HA-tagged CCL7 (from UniProt P80098 24-99) (ligand) |
